Patent US10533050B2, “Methods and compositions for liver cancer therapy” (Institut National de la Sante et de la Recherche Medicale …, priority 2010, dated 2020)

B1: MAb3: murine N-terminal anti-hPG monoclonal antibody, hybridoma 6B5B11C10, VH SEQ ID NO:12, VL SEQ ID NO:13 (antibody, V domains shown)
VH: EVQLQQSGTVLARPGASVKMSCKASGYIFTSYWVHWVKQRPGQGLEWIGGFYPGNSDSRYNQKFKGKATLTAVTSASTAYMDLSSLTNEDSAVYFCTRRDSPQYWGQGTTLTVSS
VL: DVLMTQTPLSLPVSLGDQASISCRSSQSIVHSNGNTYLEWYLQKPGQSPKLLIYKVSNRFSGVPDRFSGSGSGTDFTLKISRLEAEDLGVYYCFQGSHVPFTFGGGTKLEIK
B2: MAb19: murine N-terminal anti-hPG monoclonal antibody, hybridoma 1B3B4F11, VH SEQ ID NO:62, VL SEQ ID NO:66 (antibody, V domains shown)
VH: DVQLQESGPGLVKPSQSLSLTCTVTGYSITSDYAWNWIRQFPGNKLEWMGYISFSGYTSYNPSLKSRISVTRDTSRNQFFLQLTSVTTEDTATYYCAREVNYGDSYHFDYWGQGTIVTVSS
VL: QLALTQSSSASFSLGASAKLTCTLSSQHRTYTIEWYQQQSLKPPKYVMEVKKDGSHSTGHGIPDRFSGSSSGADRYLSISNIQPEDEAIYICGVGDAIKGQSVFVFGGGTKVTVL
B3: MAb4: murine N-terminal anti-hPG monoclonal antibody, hybridoma 20D2C3G2, VH SEQ ID NO:14, VL SEQ ID NO:15 (antibody, V domains shown)
VH: QVQLQQSGAELMKPGASVKISCKATGYTFSSSWIEWLKQRPGHGLEWIGEFLPGSGSTDYNEKFKGKATFTADTSSDTAYMLLSSLTSEDSAVYYCATDGNYDWFAYWGQGTLVTVSA
VL: DLVMTQTPLSLPVSLGDQASISCRSSQSLVHSSGVTYLHWYLQKPGQSPKLLIYKVSNRFSGVPDRFSGSGSGTDFTLKISRVEAEDLGVYFCSQSTHVPPTFGSGTKLEIK

The molecules below were run on hPG (assay: Epitope mapping by SPOT technique and alanine scanning). Conditions: PG peptide antigen SWKPRSQQPDAPLG (N-terminal).
Format: binding, human

Molecule	Epitope sequence bound
B1	DAPLG
B2	WKPRSQQPD
B3	WKPRSQQPDAPLG
